Values quoted from earlier work, collected in patent US9771342B2, “Monascuspurpurones, preparation process thereof, and uses of the monascuspurpurones” (Food Industry Research and Development Institute, priority 2010, dated 2017).
At least one compound was matched to its structure with a doubt left.

Conditions: treatment of hyperlipidemia; cited from earlier work

CC[C@H](C)C(=O)O[C@H]1C[C@H](O)C=C2C=C[C@H](C)[C@H](CC[C@@H](O)C[C@@H](O)CC(=O)O)[C@H]21 [Pravastatin]
decrease of Apo B: 8.89%
decrease of low density lipoprotein cholesterol: 24.24%
decrease of total cholesterol: 18.92%
